# Results as given in doi:10.1101/2025.01.16.633295.
# Amino acid sequences for entries named in this document (tags omitted).
# UniProt B5DF89: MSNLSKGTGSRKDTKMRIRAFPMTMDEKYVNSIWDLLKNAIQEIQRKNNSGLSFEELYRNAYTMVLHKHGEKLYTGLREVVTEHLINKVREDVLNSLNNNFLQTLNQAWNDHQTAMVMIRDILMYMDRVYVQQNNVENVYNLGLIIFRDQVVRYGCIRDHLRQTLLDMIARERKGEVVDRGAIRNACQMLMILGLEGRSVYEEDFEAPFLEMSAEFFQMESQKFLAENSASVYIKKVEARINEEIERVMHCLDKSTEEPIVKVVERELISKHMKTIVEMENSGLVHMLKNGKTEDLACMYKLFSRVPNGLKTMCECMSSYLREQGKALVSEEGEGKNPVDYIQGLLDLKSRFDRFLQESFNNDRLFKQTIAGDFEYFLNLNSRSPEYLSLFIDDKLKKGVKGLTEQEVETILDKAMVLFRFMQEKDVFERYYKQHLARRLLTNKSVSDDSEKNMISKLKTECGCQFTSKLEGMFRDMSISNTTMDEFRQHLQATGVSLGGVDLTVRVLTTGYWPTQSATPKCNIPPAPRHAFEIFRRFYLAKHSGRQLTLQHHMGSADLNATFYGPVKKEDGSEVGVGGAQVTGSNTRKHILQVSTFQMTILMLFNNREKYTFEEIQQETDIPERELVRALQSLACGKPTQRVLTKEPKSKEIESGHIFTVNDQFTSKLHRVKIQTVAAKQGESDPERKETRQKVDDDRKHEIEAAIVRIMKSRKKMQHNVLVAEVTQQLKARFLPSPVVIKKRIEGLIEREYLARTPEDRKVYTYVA
# T1: GST-TIA1 (T-cell intracellular antigen 1) (UniProt P31483)
# T1 sequence: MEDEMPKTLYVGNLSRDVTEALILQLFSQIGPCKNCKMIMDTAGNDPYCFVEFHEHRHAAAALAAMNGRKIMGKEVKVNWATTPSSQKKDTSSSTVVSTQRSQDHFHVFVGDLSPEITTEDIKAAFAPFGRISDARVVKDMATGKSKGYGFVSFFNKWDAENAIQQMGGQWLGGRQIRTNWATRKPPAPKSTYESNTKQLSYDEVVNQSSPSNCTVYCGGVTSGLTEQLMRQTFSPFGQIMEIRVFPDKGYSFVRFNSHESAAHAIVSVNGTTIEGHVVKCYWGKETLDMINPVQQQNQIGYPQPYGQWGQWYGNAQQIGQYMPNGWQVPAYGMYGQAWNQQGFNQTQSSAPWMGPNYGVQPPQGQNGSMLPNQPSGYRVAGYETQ
# B1: Annexin A7 (ANXA7), endogenous, rat (protein, UniProt Q6IRJ7 1-485)
# chain: MSYPGYPPTGYPPFPGYPPAGQESSFPTSGQYPYPSGFPPMGGGAYPPAPSGGYPGAGGYPSPGGYPAPGGYPGTLNPGGPPSYPGGQGFGAPPGGAGFSGYPQPPAQSYGGGPAQVPVPGGFPGGQMPSQYPGGQSPYPGQIDTESFSSYPAFSPVSLDYSSDPAAMTQGTQGTIRPASNFDAMRDAEILRKAMKGFGTDEQAIVDVVSNRSNDQRQQIKAAFKTMYGKDLIKDLKSELSGNMEELILALFMPPTYYDAWSLRKAIQGAGTQERVLIEILCTRTNQEIRDIVRCYQLEFGRELERDIRSDTSGHFERLLVSMCQGNRDESPSINHQMAQEDAQRLYQAGEGRLGTDESCFNMILATRSFPQLRATMEAYSRMANRDLLSSVSREFSGYVESGLKTILQCALNRPAFFAERLYYSMKGAGTDDSTLVRIVVTRSEIDLVQIKQMFTQMYQKTLSTMIASDTSGDYRKLLLAIVGQ
# Target: T1, GST-TIA1 (T-cell intracellular antigen 1)
# Assay: affinity purification with mass spectrometry
row,Molecule,binding
1,"CUL3, endogenous, rat brain (from UniProt B5DF89 1-768)",binds
2,B1,binds

# These are yes or no findings as the source states them, for the method shown. Binding seen in cells or lysates may run through a third protein. A yes stands for co-enrichment or nearness to the bait. Other partners may have been found. Sequences can lack the tags named with a protein.
